We go through 8 molecules from publication PMC10442049.

Sequences of proteins named here, by UniProt entry; tags and fusion partners are left off.
UniProt F4JP43: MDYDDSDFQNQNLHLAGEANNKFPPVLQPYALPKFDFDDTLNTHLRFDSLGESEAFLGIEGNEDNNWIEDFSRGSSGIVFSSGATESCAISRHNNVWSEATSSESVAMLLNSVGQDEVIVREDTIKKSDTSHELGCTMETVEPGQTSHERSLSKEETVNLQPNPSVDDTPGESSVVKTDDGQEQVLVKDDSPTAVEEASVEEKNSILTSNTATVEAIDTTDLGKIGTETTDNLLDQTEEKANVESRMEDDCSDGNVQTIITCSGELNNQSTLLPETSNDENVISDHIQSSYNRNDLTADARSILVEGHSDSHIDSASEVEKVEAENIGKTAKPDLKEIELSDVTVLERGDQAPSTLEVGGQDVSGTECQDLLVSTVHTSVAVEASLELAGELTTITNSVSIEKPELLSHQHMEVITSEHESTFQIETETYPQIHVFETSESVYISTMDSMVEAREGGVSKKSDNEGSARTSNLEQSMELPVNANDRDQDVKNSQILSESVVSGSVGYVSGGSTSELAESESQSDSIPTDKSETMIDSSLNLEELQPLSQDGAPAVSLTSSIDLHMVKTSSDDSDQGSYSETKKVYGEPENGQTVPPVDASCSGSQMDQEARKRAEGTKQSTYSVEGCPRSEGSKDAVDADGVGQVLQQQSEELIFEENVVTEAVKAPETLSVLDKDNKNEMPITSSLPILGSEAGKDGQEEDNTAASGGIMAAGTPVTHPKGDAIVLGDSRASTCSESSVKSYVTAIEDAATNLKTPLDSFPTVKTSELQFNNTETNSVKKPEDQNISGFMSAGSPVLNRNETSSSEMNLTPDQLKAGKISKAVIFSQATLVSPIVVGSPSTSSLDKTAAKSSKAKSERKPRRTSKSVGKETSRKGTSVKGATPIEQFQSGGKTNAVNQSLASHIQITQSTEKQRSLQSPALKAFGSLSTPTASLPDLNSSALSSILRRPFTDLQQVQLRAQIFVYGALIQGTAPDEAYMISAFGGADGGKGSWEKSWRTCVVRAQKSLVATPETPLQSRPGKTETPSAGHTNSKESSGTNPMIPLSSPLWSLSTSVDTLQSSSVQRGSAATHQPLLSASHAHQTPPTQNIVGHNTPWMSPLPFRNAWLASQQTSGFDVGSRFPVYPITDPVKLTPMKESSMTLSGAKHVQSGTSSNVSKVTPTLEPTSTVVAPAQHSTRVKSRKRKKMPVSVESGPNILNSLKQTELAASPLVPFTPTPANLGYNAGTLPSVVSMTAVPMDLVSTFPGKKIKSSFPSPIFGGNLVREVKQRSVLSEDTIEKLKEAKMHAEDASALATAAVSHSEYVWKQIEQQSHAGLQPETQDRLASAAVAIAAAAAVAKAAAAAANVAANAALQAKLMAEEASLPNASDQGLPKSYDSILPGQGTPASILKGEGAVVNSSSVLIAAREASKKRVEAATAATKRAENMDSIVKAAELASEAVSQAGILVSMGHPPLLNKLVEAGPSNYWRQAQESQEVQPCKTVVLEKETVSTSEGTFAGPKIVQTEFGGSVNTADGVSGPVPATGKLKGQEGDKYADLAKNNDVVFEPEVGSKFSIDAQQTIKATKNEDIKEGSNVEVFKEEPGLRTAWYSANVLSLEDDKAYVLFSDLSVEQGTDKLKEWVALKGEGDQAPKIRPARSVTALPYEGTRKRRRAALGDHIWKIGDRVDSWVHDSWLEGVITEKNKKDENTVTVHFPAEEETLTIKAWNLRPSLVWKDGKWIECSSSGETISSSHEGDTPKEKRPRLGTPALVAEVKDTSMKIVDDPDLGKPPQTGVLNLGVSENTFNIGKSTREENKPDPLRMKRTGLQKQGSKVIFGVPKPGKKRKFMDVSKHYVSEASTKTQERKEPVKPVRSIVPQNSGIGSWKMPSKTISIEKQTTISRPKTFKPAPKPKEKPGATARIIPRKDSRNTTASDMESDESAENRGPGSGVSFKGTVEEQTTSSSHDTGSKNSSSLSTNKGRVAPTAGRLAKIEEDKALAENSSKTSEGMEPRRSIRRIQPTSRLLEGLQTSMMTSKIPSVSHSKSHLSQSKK

These are yes or no findings as the source states them, for the method shown. In cells and extracts the contact can be indirect. These calls come from enrichment with a bait or labelling near it, and not all partners need be listed.

To fix the notation:
B1: SUN1, endogenous (protein, UniProt Q9FF75 1-471)
chain: MSASTVSITANTAAATRRTPILAGEKKSNFDYPQSESLANGGVGEAGGTSRDLSRGEATLDRSQGQDLGPVTRRSVSAATGTNTTATQRRTRKVATPKSEKARWKTVVRIFAKQLGALLIIVGLIQLTRKMILKASSPSSPISSYETEMAFSGLESRIAEVDGLVKATTNSMQVQVELLDKKMEREAKVLRQEIERKASAFQSELKKIESRTESLEKSVDEVNAKPWVTKDELERIYEELKKGNVDDSAFSEISIDELRAYARDIMEKEIEKHAADGLGRVDYALASGGAFVMEHSDPYLVGKGSSWFATTMRRAHTNAVKMLSPSFGEPGQCFPLKGSEGYVQIRLRGPIIPEAFTLEHVAKSVAYDRSSAPKDCRVSGSLQGPESSAETENMQLLTEFTYDLDRSNAQTFNILESSSSGLIDTVRLDFTSNHGSDSHTCIYRFRVHGRAPDPVPVVGTNLDQDSSPESE
B2: LINC4, endogenous (protein, UniProt Q9FLH0 1-1010)
chain: MATSSRSERFPITPSTAATNRLTITPNSRVLKSPLTEEIMWKRLKDAGFDEQSIKNRDKAALIAYIAKLESEVYDYQHNMGLLLLEKNELSSQYEEIKASVDESDLTHMREKSAYVSALAEAKKREESLKKDVGIAKECISSLEKTLHEMRAECAETKVSAGSTMSEAHVMIEDALKKLADAEAKMRAAEALQAEANRYHRIAERKLKEVESREDDLTRRLASFKSECETKENEMVIERQTLNERRKSLQQEHERLLDAQVSLNQREDHIFARSQELAELEKGLDTAKTTFEEERKAFEDKKSNLEIALALCAKREEAVSERESSLLKKEQELLVAEEKIASKESELIQNVLANQEVILRKRKSDVEAELECKSKSVEVEIESKRRAWELREVDIKQREDLVGEKEHDLEVQSRALAEKEKDITEKSFNLDEKEKNLVATEEDINRKTTMLEDEKERLRKLDLELQQSLTSLEDKRKRVDSATQKLEALKSETSELSTLEMKLKEELDDLRAQKLEMLAEADRLKVEKAKFEAEWEHIDVKREELRKEAEYITRQREAFSMYLKDERDNIKEERDALRNQHKNDVESLNREREEFMNKMVEEHSEWLSKIQRERADFLLGIEMQKRELEYCIENKREELENSSRDREKAFEQEKKLEEERIQSLKEMAEKELEHVQVELKRLDAERLEIKLDRERREREWAELKDSVEELKVQREKLETQRHMLRAERDEIRHEIEELKKLENLKVALDDMSMAKMQLSNLERSWEKVSALKQKVVSRDDELDLQNGVSTVSNSEDGYNSSMERQNGLTPSSATPFSWIKRCTNLIFKTSPEKSTLMHHYEEEGGVPSEKLKLESSRREEKAYTEGLSIAVERLEAGRKRRGNTSGDETSEPSNNKKRKHDVTQKYSDEADTQSVISSPQNVPEDKHELPSSQTQTPSGMVVISETVKITRVTCETEVTNKVTTLDCSESPSEAGRKMGEETEDGDCNQTGINASETVIHNEAATEDICT
B3: Nup35, endogenous (protein, UniProt O04326 1-329)
chain: MSAAAHRTPKSGRQSLLFQDLASPVSARRGKFSSPGQAAAVSALWRENFGGSDLPPPPMYTLDDRSDFSPESGIADYSASPDAKSDRRTPFQSSGKNIVTPGKGKLEASPSFSLLNAQQSQQVSGSPSWWSQSKAGSSTEQDDKGKGSPVEGVVQPGALVTLPPPREVARPEVQRQIIPTGNLDEEEWVTVYGFSPGDTNLVLREFEKCGMVLKHVPGPRNANWMHILYQNRSDAHKALNKAGMMINGVVIVGVKPVDPIQKQALNERLNNQGFMPLPPPSSTRNTARPLSRPQYLQNGSAFSPQPSGGAMASPSKSMVSKFFDLMFGV
B4: Nup155, endogenous (protein, UniProt F4HXV6 1-1464)
chain: MSQDDEIVMRDVTSAGICIGDRIGREAASQLDLEEALEASRYASHPYSTHPREWPPLIEVGETWELPSVLIERYNTAGGEGTALCGIFPEIRRAWASVDNSLFLWRFDKRDGQCPEYSGEEQAICAVGLAKCRPGVFVEAIQYLLVLATPVELVLVGVCCTEGPDGRDPYAEISVQPLPDYTISSDGVTMTCVTCTNKGRIFMAGRDGHIYELLYTTGSGWNKRCRKVCLTAGVGSMISRWVVPNVFKFGAVDPVVEMVVDNERQILYARTEEMKLQAYVSGPNGEGPLKKVAEERNLLNQKDLSQGNRQSAVAGRSNKPSIVSISPLSMLESKWLHLVAALSDGRRMYLSTSSSGSGSTISFSGFNNHRQTPNCLKVVSTRPSPPLGVGVGLGFGAASVAGRTQNDDLSMKIETAYYSVGTLVLSDSSPPAMSSLLVVSRDSSVHSQAGSSSGPSSRSSRALREVVSSLPIEGRMLFVADVLPSPDTAATIQSLYSELEYCGVEVSGESYEKACGKLWARSDLSTQHILPRRKIVVFTTMGMMELVFNRPVDILRRLLESNSPRSLLEDFFTRFGVGEAAAMCLMLAARIINFEDLISNIVADKAAEAFEDPRIVGMPQFDGSSGLSNTRTATGGFSMGQVVQEAEPIFSGAHEGLCLCTSRLLFPLWELPVMSKKTSSDTMSEDGVVICRLSTSAMHVLESKIRSLEKFLRSRRNQRRGLYGCVAGLGDVTGSILYGTGSELGATERNMVRNLFGAYSNGGESANKRQRLPYSPAELAATEVRAMECIRQLLLRSAEALFLLQLLSQHHVARLVQELDANLKQALVQLTFHQLVCSEEGDQIATRLISAVMEYYTGSDGRGTVDDISPRLREGCPSYFKESDYKFYLAVERLERAALTSDAEEKENVAREAFSFLSKVPGSADLQTVCKRFEDLRFYEAVVCLPLQKAQALDPAGDAFNDQLDASIREHALAQRKQCYEIIANALRSLASPLASPTLDEASRSQYICQIVHLGVQSTDRAFREYLYKAMIELHLENELLEYGGPDLVPFLQNAGSHSESQVGAVSTGSSPLGHSGTQISSDQAKYFDLLAKYYVSKRQHVLAAHVFLRLAERRAISLGDSPTLERRRDDLSQAVLQAKNASNSDGLVGSAQGVSDSGLLDLLEGKLAVLQFQIKIRDKLEAIASNFESSVAMQDSDQNGQVLDGDSSDDTNLANAANEMAMEVSSELKSVTQLYNEYAVPFELWEICLEMLYFANYSGDADSSIIRETWARLIDQALSQGGIREACAVLKRVGSHIYPGDGVVLPLDVLCLHLERAALERSERIENVRDEDIAKALLAACKGAAEPVLNAYDRLLSNAAVVPSPNLRIRLLRSVLVVLREWAMSVLSDRMGSSPTRSSLILGGSFALENKAALNQGARDKIANAANRYMTEVRRLALPPNKTDGVYAGFKELDESLLSPFSF
B5: LOS4, endogenous (protein, UniProt Q93ZG7 1-496)
chain: MADTVEKVPTVVESSSSSTVEASNSAEKTEPTTEKKKWGDVEDDDDEEEAVSELNSLSIKEEEKPDSILEEPEDSNIKAVTSGDTPYTSASRFEDLNLSPELMKGLYVEMKFEKPSKIQAISLPMIMTPPHKHLIAQAHNGSGKTTCFVLGMLSRVDPTLREPQALCICPTRELANQNMEVLQKMGKFTGITAELAVPDSTRGAPAATRGAPVSAHVVIGTPGTLKKWMAFKRLGLNHLKILVFDEADHMLATDGFRDDSLKIMKDIGRVNPNFQVLLFSATFNETVKDFVARTVKDPNQLFVKREDLALDSVKQYKVVCPKEQNKIEVIKDQIMELGDIGQTIIFVKTKASAQKVHKALAEMGYDVTSVHGNLTESDRDKIVKEFKECLTQVLIATDVIARGFDQQRVNLVVNYNLPTKYETGEPDYEVYLHRVGRAGRFGRKGAVFNLLLDDGWDKEVMEKIEKYFEANVKEIKSWNSEEEYKSALKEAGLLDE
B6: Nup96, endogenous (protein, UniProt Q8LLD0 1-1046)
chain: MTSLSIQPFPEISRMARDLDSRKKRRISLDGIAALCEHSKEIIDSLPMLNSPDYFLKPCINELVEREIESPDYCSRVPDFTIGRIGYGYIRFLGNTDVRRLDLDHIVKFHRHEVIVYDDESSKPVVGEGLNKAAEVTLVVNIPDLTWGKQQVNHIAYKLKQSTERQGATFISFDPDNGLWKFFVPHFSRFGLSDDEAEDIAMDDAPGLGDPVGLDGKKVADIDEEDQMETSELELSHSLPAHLGLDPEKMKEMRMLMFPNEDEDESEDFREQTSHLMTSLTKRNVRPSQKIAQRNSHQDPPPVVRKTPLALLEYNPGNDKSSPGSILMVQQNKNLAVRKSKTGGFELDISHVTPLTDNYSRNVVDAALFMGRSFRAGWGPNGVLFHTGKPICSSSSQMVLSSVINKEKIAIDKVVWDRKGKVQKELIDSAFEAPLSLHKELNHVEEEVRFGSFSLKLQNVVTDRVVLSDICRSYIGIIEKQLEVAGLSTSAKLFLMHQVMVWELIKVLFSERQSTERLMYAASDNEEDVMQDVKEDSAKIDTEALPLIRRAEFSCWLQESVSHRVQEDVSDLNGSSYLEHLFFLLTGRELDSAVELAISKGDVRLACLLSQAGGSTVNRNDILQQLHLWRRNGLDFNFIEKERIKLYELLAGNIHDALQDFTIDWKRFLGLLMWHHLPPDSSLPIIFRSYQLLLNQAKAPWPVPIYIDEGPADGFVSDNKHSDILYYLMLLHSKEEEEFGFLQTMFSAFSSTDDPLDYHMIWHHRGILEAVGAFTSDDLHTLDMGFVAQLLSQGLCHWAIYVVLHIPFREDHPYLHVTVIREILFQYCETWSSMESQRQFIKDLGIPSEWMHEALAVYYNYHGDFVKALDQFIECANWQRAHSIFMTSVAHSLFLSANHSEIWRIATSMDDRKSEIENWDLGAGIYMSFYLLKSSLQEDADTMVELEPLDSTNESCRNFVGRLNESLAVWGDRLPVEARVAYSKMAEEICDLLLSDLSKNPSRETQLTCFETAFDAPLPEDVRSTHLQDAVSLFSLYLSETGQISA
B7: Nup54, endogenous (protein, UniProt Q8GYF7 1-377)
chain: MFGTPSSSPSFGTPSSTPAFGTSSPAFGTPSATPAFGTPSNPSFSSGGFGSSLFSSPFSSQQPQQQQQQQQQQQPSSLFQQQPSSNFGFQSPFNNTAQQQQQTPFPNAQLTTQMAPVAPIPYSLADRDVQAIIEAYKEDPTNPKYAFQHLLFSVTEPQYRVKPAAVSDIMWAEAMSKLEGMDSTERERLWPQLVQGFKDLSQRLKLQDEVLVSDRDRIKTTQSNVKMLQRHLQASTFPSIERLRQKEQSLQRRMLRVMRIIEGLEGKGFRLPLTKGEAELSEKLTAITRQVKGPGAELSRRVQSLQTISRAQANSIAAGSSLYLPGSTKIDEQSLIDMQEVLQQETEAIGRLGNVLKRDMRDMEIMVAEDTEMALDS
B8: RAE1, endogenous (protein, UniProt Q38942 1-349)
chain: MATFGAPATANSNPNKSYEVTPSPADSISSLSFSPRADILVATSWDNQVRCWEISRSGASLASAPKASISHDQPVLCSAWKDDGTTVFSGGCDKQAKMWPLLSGGQPVTVAMHEGPIAAMAWIPGMNLLATGSWDKTLKYWDTRQQNPVHTQQLPDKCYTLSVKHPLMVVGTADRNLIVFNLQNPQTEFKRIQSPLKYQTRCVTAFPDQQGFLVGSIEGRVGVHHLDDSQQSKNFTFKCHRDGNDIYSVNSLNFHPVHGTFATAGSDGAFNFWDKDSKQRLKAMSRCNQPIPCSSFNHDGSIYAYAACYDWSKGAENHNPATAKSSIFLHLPQESEVKAKPRVGATGRK

This test has as its target SWO1g-Myc (SWOLLEN 1 with 3xMyc, from SWO1pro:SWO1g-Myc) (Arabidopsis thaliana) (UniProt F4JP43). Kind of test: affinity purification with mass spectrometry; SWO1g-Myc as bait from transgenic Arabidopsis seedlings; anti-Myc agarose beads, 4 °C, 2 h; lysis buffer 50 mM Tris pH 7.6, 150 mM NaCl, 5 mM MgCl2, 10% glycerol, 0.1% NP-40, 0.5 mM DTT; four independent experiments.
Consider B1, for which the binding result is listed as “binds”.

On to B2, for which the binding entry is “binds”.

Turning to B3, the binding entry is on record as “binds”.

As for B4, the binding entry was “binds”.

In the case of B5, the binding entry is “binds”.

In the case of B6, the binding result was “binds”.

As for B7, the binding result was “binds”.

As to B8, the binding result is recorded as “binds”.
